Data: PubChem BioAssay AID1347423 (Functional Genomics Laboratory (NCATS/FGL), 2020)
The campaign covered roughly 52,000 sequences. About 210 (0.4%) were called active.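 The calls were made as follows: active = gene whose silencing raises cell survival under the drug, median off-target-corrected z-score across its silencing RNAs 2 or more; inactive = the rest.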 Some of the results follow.

Assay: Resistance to Poly (ADP-Ribose) Polymerase inhibitor: Gene Identification via Genome-wide siRNA Screen
Settings: mouse BRCA2 R2336H ES cells, olaparib, CellTiter-Glo viability; hits give high values
How it was run: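 Mouse BRCA2 R2336H ES cells were reverse-transfected with siRNA (20 nM final), treated at 48 h with 500 nM olaparib, and read by CellTiter-Glo after 72 h. Scores: MAD-based z per siRNA, median per gene, seed off-target correction.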

Sequence | z-score
GGAGGGACAUGGAGAUUACTT against Ptpn18 | inactive: 0.667
GGUUCAGAACAUUAACUCCTT against Rab18 | inactive: 0.339
CCUCUGGUCUCUUAGAAAGTT against Frda | inactive: -0.0262
GGAAAAGAGCAACUACCAGTT against Brf1 | inactive: -1.48
GGUGCUUAAUCAACAGAAATT against Scn3a | inactive: 0.48
GGUCUCCAAAGCAGAUACCTT against Svil | inactive: -2.57
CGAAUUGGAGAGGAGCUUCTT against Otp | inactive: 0.0821
GGUGAUUGGGAAUUGAAAATT against F3 | inactive: 0.0336
GGUAUGAUCCAGUAAUCCUTT against V1rc19 | inactive: 0.0462
CCGAGUCUUGAACUAGGCATT against Six2 | inactive: 0.495
GGAACAAGAACAAGUUGAGTT against Spa17 | inactive: 0.0891
GCCAAUCGGCAUCUUCCUUTT against Bcar1 | inactive: 0.843
GGUGGUUAUUGGUGGCAGATT against Smc2l1 | inactive: -1.81
GGCCUAAAGUAAUUUUGGGTT against 4922501C03Rik | inactive: 0.173
GGCUCUAUCACUGAGUCACTT against Dhrs10 | inactive: 2.72
GCUGACCUUCAUUCAUAUATT against V1rc33 | inactive: -1.96
GGCUACAUGUGAUUUCUCUTT against Ttc7 | inactive: 0.203
GCUUCACCUAGAGAUUAUUTT against AI836376 | inactive: -1.4
GGAGAUCAAAGAUAUCCUCTT against Rps16 | inactive: -3.13
GCAGCUAAGAAGACCACUATT against Zfp185 | inactive: -0.21
GGUUGGUCUAGCAAUCUGUTT against Nit1 | inactive: 0.308
CGGUUUUUUAAUCUACCUATT against Ppp1r7 | inactive: -1.68
GGCUUUAAGAUCACACAAATT against Snrpa | inactive: -2
GAUACAGACCUUGCUCUUCTT against Olfr714 | inactive: -0.369
GCUACCUCUCGUAGUAAAATT against Sgk2 | inactive: 0.146
GGAGAGCUAAAUAAACAAATT against Kitl | inactive: -0.587
GGCUACUUCUGUACUAGGATT against Gclc | inactive: 1.1

Laid out differently: entries from further up
GGAGGGACAUGGAGAUUACTT against Ptpn18
  z-score: inactive: 0.667
GGUUCAGAACAUUAACUCCTT against Rab18
  z-score: inactive: 0.339
CCUCUGGUCUCUUAGAAAGTT against Frda
  z-score: inactive: -0.0262
GGAAAAGAGCAACUACCAGTT against Brf1
  z-score: inactive: -1.48

(cont.)

Sequence | z-score
GGAAGUUGAUAAAUGGUCUTT against Pde1a | inactive: 1.15
GGCCAUAAAAUGGUAGUAUTT against Trim36 | inactive: -1.85
GGAAGAUGUGUUUCUGCCCTT against Gnefr | inactive: -0.0367
CCUUGAGUGAAAGAAUUGATT against BC020151 | inactive: 2.52
GGCAAUAUUUCAGAACCUGTT against Tfb2m | inactive: -0.691
GCUAUACUAUUGAAGAAAGTT against Ttrap | inactive: -0.694
GCAGCAGCAAAUGUUCUAUTT against Olfr386 | inactive: 0.586
GGUCACUUCACCCUUUGUATT against Gng5 | inactive: -0.705
GGUCCUCUAAAGAAUAAAGTT against Ela3b | active: 0.513
GGACUUUUACCUCCUAAAATT against Me2 | inactive: 1.69
GGACCAUAUUCCAGACCAGTT against A730011L01Rik | inactive: -0.211
GGAGUUAAUGAUUCAUUGCTT against Ripk3 | inactive: -0.814
GGGUUCAAUGUGAUACACATT against Stard6 | inactive: -1.19
GGAUCAUUUGAAAUUGCUGTT against Atp5s | inactive: -1.11
GCUAGUGACUUUGAGAUUGTT against Msh5 | inactive: 0.165
GGUGCAGAUCCCAAAUCUGTT against 2610312B22Rik | inactive: 0.402
GGUGAUCACAAAUAUGAUGTT against 3110003A22Rik | inactive: -0.731
GGACUAAGCAUUUGUAUCUTT against 3110082I17Rik | inactive: 1.43
CGAAGGUCGUUAUUAUAAUTT against 5031439A09Rik | inactive: 2.27
GGAACAUAUUUAUUGGUGATT against 9330161F08Rik | inactive: 1.21
GGUCUAAAAGGGCUCCUUATT against Cxcl10 | inactive: -1.32
GGUGUCUACGAAAUUCAAATT against Exosc9 | inactive: 0.189
GGAAAUCAACAACUGUAGCTT against Tas1r2 | inactive: 0.446
CCGACUUGGUGGAGUAUAGTT against Ddost | inactive: 0.302
GGGACACAAUUCUUUGAAATT against G630009D10Rik | inactive: 0.375
GCCACCUAGUACUCAACUATT against Baz2a | inactive: -2.7
GGAUGUUUGUGGAUGUGGUTT against Tbx21 | inactive: -0.48

Quoted from the listing:
In z-score, GGUGAUCACAAAUAUGAUGTT against 3110003A22Rik is listed with inactive: -0.731
In z-score, GGAUGUUUGUGGAUGUGGUTT against Tbx21 is listed with inactive: -0.48

Exported field by field: entries from further up
GGGUUCAAUGUGAUACACATT against Stard6
  z-score: inactive: -1.19
GGAUCAUUUGAAAUUGCUGTT against Atp5s
  z-score: inactive: -1.11

Continued.

Sequence | z-score
GGUGGCCAAGAAUGUGAAUTT against BC024561 | inactive: 0.0114
GGCUUUUUGCUUCACUACUTT against Slco4c1 | inactive: 1.12
CCUUCUUUUGAGAACAGAATT against Nsd1 | inactive: -0.313
GGUCUUACUGUUUGUGAUATT against Olfr1295 | inactive: 0.335
GGCACUCUUGUUGAAAUUCTT against H6pd | inactive: 1.35
GGAACAUGAAGCCUUUUACTT against Asb16 | active: 3.12
GGAUAAUUCACUGUCGCUUTT against Cyp2c37 | inactive: 0.605
GGGAAACCUGAACUAACAGTT against Pcdha5 | inactive: -0.0304
GCUUAAUGCCUUGAAACGATT against Tsg101 | inactive: -0.442
GGAGAAACAGAAGUAUUGATT against 5730427N09Rik | inactive: -1.18
CCAAAAAUACUUCUCCUUCTT against Gata6 | inactive: 0.325
GUGAUGGUUGGGCUUCUCATT against Olfr1450 | inactive: -0.738
GGCUAUUUAUAGUUGUCGGTT against Unc119 | inactive: -0.441
GGUCUGUUCCGUAUGAAGCTT against Ube2s | inactive: -0.597
GGAGGAAUACCAGGAAUACTT against Sncb | inactive: -1.99
CGAUAACAUGUUGAAAAACTT against Kctd10 | inactive: 1.44
GGAAGUGGCCACAUGUGAATT against E230025N22 | inactive: 0.86
CGAUGAAGAUUGUAACUAGTT against 4930555G01Rik | inactive: 1.17
GGUGUAGAUAAGAACUAUGTT against Odf1 | inactive: 1.91
GCUGGUUGUGUUAAAAUGCTT against Cyp4a14 | inactive: 1.35
ACUGUAUGAAGAGGAAACATT against Krt2-25 | inactive: 0.824
CCACGACACGCAAGAUGAGTT against Fzd8 | inactive: 1.34
GGAAUUGAGCAGGAAGAGGTT against Stx1b1 | inactive: 0.353
GGUCACUCCCACUUCGUUATT against Gnb2-rs1 | inactive: -0.269
GGAAGAAGAUCAAGGAGAUTT against Fer1l3 | inactive: -0.222
GGACAUCCAGUAUUUUGUGTT against Pstpip2 | inactive: -0.0609
CCAUAUGUCCUGUUUAAGATT against Grik2 | inactive: 0.699

Sequence | z-score
CCCUGUUCCAAUCCGGUUCTT against LOC280621 | inactive: 2.18
CCAGUGACGGUGUGAUCUUTT against LOC541307 | inactive: -2.79
GCCUCAAGCCUACCAUGUUTT against Fadd | inactive: -1.43
GUCACUGAUACUCAAUAAATT against V1rd9 | inactive: 0.508
GGGCUGUCAUUAUAGUCCATT against Unc93a | inactive: -0.33
GGCUGUGCCAAUUUAAUUUTT against 1700022L09Rik | inactive: 2.66
GGGCAUAUGAUAAUCAUACTT against Carkl | inactive: 1.14
CCAACUUCAAAACUAUCGUTT against Trp53bp1 | active: 1.96
CCCUUAUUGAUUCUUCAAGTT against Ngp | inactive: 1.35
GGAGUUGGUGAAGCAGCUUTT against Arhgap25 | inactive: -1.91
GGCUAAAUUUGAAGAUGAUTT against 1500015O10Rik | inactive: 0.734
GGUCCUACCUUGAAGCUCCTT against Gm237 | inactive: 0.46
GCGAACGAAGCAUAAAUGGTT against Mettl1 | inactive: -0.126
GGAGUGUGAGGUCCUCUCUTT against Sdsl | inactive: 0.644
GGGUUCUGUUACAAUUCCATT against Defb11 | inactive: -0.0203
CGGGAUAUAUUCUCAGACUTT against 9130416B15 | inactive: -0.67
GCGUGUAGGAAUAAUACCUTT against Psmc6 | inactive: -3.13
GGGUAUAACUGUCAAACAGTT against C530046L02Rik | inactive: 1.42
CCGUAGAGAUCAACAACACTT against Npepl1 | inactive: 0.338
GGCAAUCCAGGCAAUAUCATT against C1qa | inactive: -0.924
CGAGUUGCUCGUGUUCAGUTT against Ndufa1 | inactive: -0.877
GGAGCUGGUCAAGAACUACTT against Chrna7 | inactive: 0.594
CCCUAAGCUCUGUUCCCAGTT against Olfr371 | inactive: -0.926
GCAUGAAGUUAGUAAUGCUTT against C230029F24Rik | inactive: -0.491
